In article PMC5219700:
These are yes or no findings as the source states them, for the method shown. In cells and extracts the contact can be indirect. Some results given as binding are weak or reduced against the parent protein; the word gives no strength.

Chains of the proteins cited; added tags and fusions are not shown.
UniProt P49815: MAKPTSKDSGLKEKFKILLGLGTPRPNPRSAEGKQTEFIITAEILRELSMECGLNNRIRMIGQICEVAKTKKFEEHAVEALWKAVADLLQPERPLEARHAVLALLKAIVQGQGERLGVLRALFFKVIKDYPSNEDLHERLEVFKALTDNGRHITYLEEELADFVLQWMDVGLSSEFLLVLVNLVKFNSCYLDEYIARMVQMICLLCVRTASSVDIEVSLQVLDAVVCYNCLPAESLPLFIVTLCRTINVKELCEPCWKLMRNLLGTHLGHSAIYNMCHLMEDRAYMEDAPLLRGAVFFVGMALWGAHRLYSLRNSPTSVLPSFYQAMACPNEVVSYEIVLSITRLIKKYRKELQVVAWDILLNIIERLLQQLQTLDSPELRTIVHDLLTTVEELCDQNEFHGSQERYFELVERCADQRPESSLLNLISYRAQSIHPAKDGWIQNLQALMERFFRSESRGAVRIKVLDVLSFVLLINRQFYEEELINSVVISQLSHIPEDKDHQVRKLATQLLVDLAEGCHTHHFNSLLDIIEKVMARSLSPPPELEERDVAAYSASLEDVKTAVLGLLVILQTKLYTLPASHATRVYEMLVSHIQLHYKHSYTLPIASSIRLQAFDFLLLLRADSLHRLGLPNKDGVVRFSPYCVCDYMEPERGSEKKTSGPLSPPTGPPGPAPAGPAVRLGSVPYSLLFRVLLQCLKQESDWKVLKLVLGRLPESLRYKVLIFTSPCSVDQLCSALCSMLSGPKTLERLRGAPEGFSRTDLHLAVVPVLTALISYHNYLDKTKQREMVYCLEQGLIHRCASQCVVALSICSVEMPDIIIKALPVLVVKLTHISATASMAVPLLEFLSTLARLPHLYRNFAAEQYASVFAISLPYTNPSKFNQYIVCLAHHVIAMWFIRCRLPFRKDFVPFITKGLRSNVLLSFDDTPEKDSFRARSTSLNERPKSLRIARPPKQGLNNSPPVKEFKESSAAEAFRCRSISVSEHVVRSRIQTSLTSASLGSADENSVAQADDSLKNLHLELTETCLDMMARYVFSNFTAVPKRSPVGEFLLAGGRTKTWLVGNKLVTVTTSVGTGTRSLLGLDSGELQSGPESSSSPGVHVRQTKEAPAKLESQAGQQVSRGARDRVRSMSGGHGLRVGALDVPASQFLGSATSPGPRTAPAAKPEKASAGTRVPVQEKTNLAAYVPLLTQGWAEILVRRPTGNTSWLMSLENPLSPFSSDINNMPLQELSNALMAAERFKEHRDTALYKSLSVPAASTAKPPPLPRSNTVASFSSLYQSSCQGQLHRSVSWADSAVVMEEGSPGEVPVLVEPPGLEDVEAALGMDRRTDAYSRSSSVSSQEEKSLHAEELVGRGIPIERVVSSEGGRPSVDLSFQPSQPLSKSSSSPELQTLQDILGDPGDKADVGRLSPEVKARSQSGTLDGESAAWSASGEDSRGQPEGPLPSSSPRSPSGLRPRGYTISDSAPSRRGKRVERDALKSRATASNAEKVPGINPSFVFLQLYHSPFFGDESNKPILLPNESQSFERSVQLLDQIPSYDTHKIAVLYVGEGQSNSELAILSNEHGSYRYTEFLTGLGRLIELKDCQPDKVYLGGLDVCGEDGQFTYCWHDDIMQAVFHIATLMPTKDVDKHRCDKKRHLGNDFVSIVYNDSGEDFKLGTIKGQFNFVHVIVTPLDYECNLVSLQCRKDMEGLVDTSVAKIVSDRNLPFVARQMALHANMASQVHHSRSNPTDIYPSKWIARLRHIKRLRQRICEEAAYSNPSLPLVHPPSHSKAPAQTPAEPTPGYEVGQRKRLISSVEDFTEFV

Target: tuberous sclerosis complex 2 (human (endogenous in Rh30)) (UniProt P49815)
Assay: co-IP; serum-starved Rh30 cells exposed to CPT for 2 h, then IGF-1 (10 ng/mL) for 1 h; lysed in cold NP40 lysis buffer; rabbit anti-TSC2 antibody plus protein A/G agarose overnight at 4 C; four washes with NP40 lysis buffer; western blot for TSC1

- binding: binds
B1: TSC1 (protein, UniProt Q92574 1-1164)
chain: MAQQANVGELLAMLDSPMLGVRDDVTAVFKENLNSDRGPMLVNTLVDYYLETSSQPALHILTTLQEPHDKHLLDRINEYVGKAATRLSILSLLGHVIRLQPSWKHKLSQAPLLPSLLKCLKMDTDVVVLTTGVLVLITMLPMIPQSGKQHLLDFFDIFGRLSSWCLKKPGHVAEVYLVHLHASVYALFHRLYGMYPCNFVSFLRSHYSMKENLETFEEVVKPMMEHVRIHPELVTGSKDHELDPRRWKRLETHDVVIECAKISLDPTEASYEDGYSVSHQISARFPHRSADVTTSPYADTQNSYGCATSTPYSTSRLMLLNMPGQLPQTLSSPSTRLITEPPQATLWSPSMVCGMTTPPTSPGNVPPDLSHPYSKVFGTTAGGKGTPLGTPATSPPPAPLCHSDDYVHISLPQATVTPPRKEERMDSARPCLHRQHHLLNDRGSEEPPGSKGSVTLSDLPGFLGDLASEEDSIEKDKEEAAISRELSEITTAEAEPVVPRGGFDSPFYRDSLPGSQRKTHSAASSSQGASVNPEPLHSSLDKLGPDTPKQAFTPIDLPCGSADESPAGDRECQTSLETSIFTPSPCKIPPPTRVGFGSGQPPPYDHLFEVALPKTAHHFVIRKTEELLKKAKGNTEEDGVPSTSPMEVLDRLIQQGADAHSKELNKLPLPSKSVDWTHFGGSPPSDEIRTLRDQLLLLHNQLLYERFKRQQHALRNRRLLRKVIKAAALEEHNAAMKDQLKLQEKDIQMWKVSLQKEQARYNQLQEQRDTMVTKLHSQIRQLQHDREEFYNQSQELQTKLEDCRNMIAELRIELKKANNKVCHTELLLSQVSQKLSNSESVQQQMEFLNRQLLVLGEVNELYLEQLQNKHSDTTKEVEMMKAAYRKELEKNRSHVLQQTQRLDTSQKRILELESHLAKKDHLLLEQKKYLEDVKLQARGQLQAAESRYEAQKRITQVFELEILDLYGRLEKDGLLKKLEEEKAEAAEAAEERLDCCNDGCSDSMVGHNEEASGHNGETKTPRPSSARGSSGSRGGGGSSSSSSELSTPEKPPHQRAGPFSSRWETTMGEASASIPTTVGSLPSSKSFLGMKARELFRNKSESQCDEDGMTSSLSESLKTELGKDLGVEAKIPLNLDGPHPSPPTPDSVGQLHIMDYNETHHEHS
